Experimental data as given in patent US20230227514A1, “BETA-ARRESTIN COMPOSITIONS AND ASSOCIATED METHODS” (Duke University, priority 2020, published 2023).
Results are given in words; binding and its absence hold for the method and conditions named. Some binding calls cover weakened binding; strength is not graded here.

By UniProt entry, the sequences of proteins in these tests, tags left out. Where a name states a change or a piece, a line headed by the entry shows the natural chain unless it says otherwise.
UniProt P25095: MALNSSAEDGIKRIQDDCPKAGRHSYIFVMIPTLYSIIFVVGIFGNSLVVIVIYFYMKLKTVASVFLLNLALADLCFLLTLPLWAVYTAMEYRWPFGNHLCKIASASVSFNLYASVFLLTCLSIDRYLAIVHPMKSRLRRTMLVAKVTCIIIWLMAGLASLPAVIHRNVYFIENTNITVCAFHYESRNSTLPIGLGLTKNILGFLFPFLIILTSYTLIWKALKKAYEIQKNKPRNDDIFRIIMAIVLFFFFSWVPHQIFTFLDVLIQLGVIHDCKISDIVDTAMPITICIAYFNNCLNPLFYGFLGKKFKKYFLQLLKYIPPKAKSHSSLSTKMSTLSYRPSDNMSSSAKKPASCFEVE
UniProt P29067: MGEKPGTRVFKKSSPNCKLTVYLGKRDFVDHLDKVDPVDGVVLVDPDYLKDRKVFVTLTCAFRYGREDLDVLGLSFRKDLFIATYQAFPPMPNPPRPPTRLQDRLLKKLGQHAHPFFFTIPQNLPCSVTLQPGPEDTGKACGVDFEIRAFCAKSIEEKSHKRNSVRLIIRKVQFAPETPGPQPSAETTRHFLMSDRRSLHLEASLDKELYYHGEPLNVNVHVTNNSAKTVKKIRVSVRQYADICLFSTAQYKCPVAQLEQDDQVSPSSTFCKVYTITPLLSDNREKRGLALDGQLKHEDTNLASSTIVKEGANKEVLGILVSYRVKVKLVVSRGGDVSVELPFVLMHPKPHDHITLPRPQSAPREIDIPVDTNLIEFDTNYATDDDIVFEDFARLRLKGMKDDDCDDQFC

Biological target: HA-AT1aR (UniProt P25095)
Assay: confocal microscopy in HEK-293 cells after agonist, data not shown

Row | binding | Substance
1 | binds | YFP-βarrestin2-K296R (from UniProt P29067 1-410)
2 | binds | YFP-βarrestin2-WT (from UniProt P29067 1-410)
